Construct, isoform or probe ends are uncertain for at least one entry. Weaker means in comparison with the reference protein, sequence or condition of that experiment.
Molecular target: [2Fe-2S]-IscR (wild type, anaerobically isolated) (Escherichia coli K12) (UniProt P0AGK8)
Test: fluorescence anisotropy
Details: Anisotropy: 40 mM Tris-Cl pH 7.9, 30 mM KCl, 5% glycerol, anaerobic unless stated, temperature not stated for the binding step, recombinant protein, label: 5' Texas Red on strand 1

By UniProt entry, the sequences of proteins in these tests, tags left out. Where a name states a change or a piece, a line headed by the entry shows the natural chain unless it says otherwise.
UniProt P0AGK8: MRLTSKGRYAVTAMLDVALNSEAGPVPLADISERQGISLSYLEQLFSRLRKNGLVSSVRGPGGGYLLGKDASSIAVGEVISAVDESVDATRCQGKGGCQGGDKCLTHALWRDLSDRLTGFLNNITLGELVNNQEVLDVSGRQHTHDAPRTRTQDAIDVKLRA

For “AAATAGTTGACCATTTTACTCGGGAATGTC (double strand) [iscRB type 1 site 30 bp]”, the binding result (air 15 min and assayed in air ([2Fe-2S]2+), impairment similar to PMS) was “binds more weakly” and the Kd (anaerobic, 2 uM PMS (oxidized [2Fe-2S]2+ cluster), apparent Kd, at least 50-fold weaker) was greater than 1 µM.

Source: PMC12594620, “The Role of the [2Fe‐2S] Cluster of Escherichia coli IscR in Responding to Redox‐Cycling Agents”
